Where “and” joins values, the source holds several entries; their conditions need not be identical. Identical values can stand only once.
Tested on: hepatic mitochondrial function
Assay: MBT in patients with liver disease, reproducibility and correlation with Child-Pugh score
[1] = threshold 4% (maximum % oxidized/h)

## CSCC[C@H](N)C(=O)O [methionine, L-1-^13 C-methionine]
20 volunteers and 22 patients with liver disease
  difference between two independently administered tests: 11%
All participants (healthy controls and liver patients combined)
  correlation r between MBT test 1 and test 2: 0.97
Controls vs CP A patients
  difference between controls and CP A (in words): no significant difference
Liver patients, MBT 1 vs MBT 2
  correlation r of reproducibility in liver patients: 0.93
Liver patients, p<0.001
  correlation r of MBT with CP score: -0.81
[1]
  accuracy of MBT: 95%
  specificity of MBT: 96%
Threshold 4% (maximum % oxidized/h), CP B/C vs controls/CP A
  sensitivity of MBT: 94% and 93%
